According to paper PMC6126873:
No constants are given. Whether binding was seen depends on the method and setting. Binding seen in cells or lysates may run through a third protein. These calls come from enrichment with a bait or labelling near it, and not all partners need be listed. Tags and fused reporters may be left off the sequences shown.

Molecular target: T1, TRIM69-Flag (human) (UniProt Q86WT6)
T1 sequence: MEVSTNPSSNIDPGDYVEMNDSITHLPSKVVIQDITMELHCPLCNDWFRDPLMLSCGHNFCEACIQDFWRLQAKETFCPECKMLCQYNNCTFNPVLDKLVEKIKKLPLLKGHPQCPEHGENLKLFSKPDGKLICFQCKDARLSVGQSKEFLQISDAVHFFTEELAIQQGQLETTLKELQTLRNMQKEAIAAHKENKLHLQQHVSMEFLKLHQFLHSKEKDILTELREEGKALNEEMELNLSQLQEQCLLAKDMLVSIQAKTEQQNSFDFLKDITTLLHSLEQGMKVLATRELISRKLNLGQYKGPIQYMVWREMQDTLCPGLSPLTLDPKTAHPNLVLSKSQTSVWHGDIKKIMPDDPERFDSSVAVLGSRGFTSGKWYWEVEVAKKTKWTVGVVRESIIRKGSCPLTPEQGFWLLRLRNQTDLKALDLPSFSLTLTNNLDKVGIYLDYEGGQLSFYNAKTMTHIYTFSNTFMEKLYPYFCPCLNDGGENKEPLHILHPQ
Assay: affinity purification with mass spectrometry; TRIM69-Flag transfected into 293T cells, then infected with DENV-2; MG132 (20 uM) 4 h; RIPA buffer (25 mM Tris-HCl pH 7.4, 150 mM NaCl, 1% NP-40, 1 mM EDTA, 5% glycerol); Flag Ab agarose beads overnight at 4 C; gel slices, nano-LC-MS/MS; Flag tag alone as control

Substance	binding
DENV NS3 from DENV-2 infected 293T cells (from UniProt P14340 1476-2093)	binds
DENV NS4B from DENV-2 infected 293T cells (from UniProt P14340 2244-2491)	binds
